Test results reported in the supplement of paper PMC3334620.
The full ranking holds about 33,000 sequences; the median of “E-score (-0.5 to 0.5)” is about -0.0014, and the highest 2% start at about 0.25. Some of the results follow.

molecular target: T1, Cad1 (UniProt P24813); experiment: PBM E-score (8-mer binding enrichment) (E-score (-0.5 to 0.5)); higher = stronger / more preferred TF binding; conditions: protein concentration: 100 nM; construct: GST-full length
T1 sequence: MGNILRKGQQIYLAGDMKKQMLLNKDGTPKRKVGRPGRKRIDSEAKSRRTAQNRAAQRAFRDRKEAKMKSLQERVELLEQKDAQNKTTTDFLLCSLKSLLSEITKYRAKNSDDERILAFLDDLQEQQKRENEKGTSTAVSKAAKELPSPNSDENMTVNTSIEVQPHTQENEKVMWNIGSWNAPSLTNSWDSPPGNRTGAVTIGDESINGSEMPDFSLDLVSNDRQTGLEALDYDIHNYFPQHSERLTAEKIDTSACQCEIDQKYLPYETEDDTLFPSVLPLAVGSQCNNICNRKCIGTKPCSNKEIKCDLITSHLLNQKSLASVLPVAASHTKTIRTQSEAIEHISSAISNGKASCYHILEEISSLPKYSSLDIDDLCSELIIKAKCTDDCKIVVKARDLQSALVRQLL
In short: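 Using PURExpress in vitro transcription/translation, GST-tagged yeast transcription factors were made in full-length or DNA-binding-domain form. These were applied at about 100-200 nM to double-stranded universal all-10-mer Agilent arrays, and bound protein was detected with fluorescent anti-GST. Scans were normalised with masliner before the Universal PBM Analysis Suite assigned E-scores to ungapped eight-base words pooled with their reverse complements.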

Sequence | PBM E-score
ACCGGGGG | -0.428
GTGAGTAA | 0.129
CGTGTTAC | 0.12
AGGGCATA | -0.0152
TACAGGCA | -0.0526
GTGTACAC | 0.217
CCTGTCTC | -0.202
AAGTGCAC | 0.15
AATAATAC | 0.205
CAATGTAG | -0.042
GACGTAGA | -0.227
AGGTCACC | -0.225
AGCCAGAG | -0.124
AGATCATG | -0.0578
ACGCCGGG | -0.167
ACCCAGCT | -0.184
AGTCATGA | 0.16
CTCCGTAC | -0.0404
CGATAAAG | 0.0305
ACACGCTA | -0.056
GCGACTTA | -0.04
ATGGTAGG | -0.112
ATTGTGCC | -0.175
AGTGGTAG | 0.00926
CAAAGTCG | -0.00415

Laid out differently: entries from further up
GTGAGTAA
  PBM E-score = 0.129
GTGTACAC
  PBM E-score = 0.217
CAATGTAG
  PBM E-score = -0.042
ACCCAGCT
  PBM E-score = -0.184

More results follow.

Sequence | PBM E-score
GCGCGAAC | -0.0187
CTTAGGGC | -0.0822
CAGTACGA | 0.0748
CTAGATTA | 0.226
ACCGAAAC | 0.0463
TCCAACGA | -0.0591
TAGTTCGA | 0.0531
AACGGGAT | -0.113
CTACGCCC | -0.203
CTATAAAC | 0.0193
CGTTTTAC | -0.0161
CCACCAGG | -0.221
AGTAGGGC | 0.0572
ACCCTTTG | -0.247
ATTTGACG | 0.156
GAACCCAA | 0.00927
ATCAGATG | -0.109
GCAACTCC | -0.137
CCTCCCTC | -0.0476
CGTGATAC | -0.0812
AATGCGGC | 0.114
GGATCTCA | -0.182
GTATGGGA | -0.253
ACACTCGC | 0.123
CGCTAAGC | 0.058

Sequence | PBM E-score
AGTCATTA | -0.0112
AGGACTGA | -0.114
ACAGAGAC | -0.106
GAGTTGGA | -0.0262
GACATCCA | -0.0881
GCCAATCA | -0.0666
GAGGCAGC | -0.0807
CGGTGGTA | -0.0272
GTAGGTCA | -0.155
ACCTGCAC | -0.139
CATATCGC | 0.0925
GGGGGAAC | -0.314
AAACCACG | -0.101
CCCGAGAC | -0.0512
GAAATTGC | 0.0698
GGTTACAC | -0.073
CTGGAGGA | -0.121
CTTGAATC | -0.017
CCGACGAG | -0.0724
CGGGGCAG | -0.102
CAAGATCC | 0.0341
TCATAGCA | -0.00424
GAGAACTA | 0.103
CACCCAAG | -0.094
CGTGCTGA | 0.222

Sequence | PBM E-score
AGCCTTAC | -0.167
TACCCCCA | -0.289
CAGCATCC | -0.185
GATCCTGA | 0.034
CCGAGGGC | -0.00227
AACCTAGG | -0.0383
GCCGGGAA | -0.144
AAACGACG | 0.113
AATAGTGT | 0.128
ACAAAACG | 0.0535
CGGTCACA | 0.00337
GAGGTAGC | -0.166
AGCAGACC | 0.0505
AAGTCGTG | 0.0348
GACTAACA | 0.218
CCTCTGTA | -0.153
ACCGGTCC | -0.312
CCAGCAAG | -0.167
GCCAACAA | -0.0504
GGAGGGGA | -0.0377
CCTATGCC | -0.218
CACGGCCA | -0.0897
TGCGGTAA | 0.141
CTGAGTCC | 0.0301
AGATGTGG | -0.133

Sequence | PBM E-score
AGCATGAC | 0.027
CTTGTCAC | -0.0806
CGTGGGTA | -0.149
GAAAGGGC | -0.112
AAGACAAG | 0.0865
AATCGATC | 0.215
GCAAGTAC | -0.0548
GCAAGGCC | 0.0338
CGCTAACG | 0.233
TTCTCCAA | -0.122
CCGAGCGC | 0.19
AATTGTTC | 0.212
TAGTCTAA | -0.103
ATATCCAA | 0.184
CCTAAACA | -0.141
ACACGTAA | -0.0157
CTACTACC | -0.0481
TGCCTTAA | -0.0884
GGTTAAAA | 0.00126
CTCACGCC | -0.0984
GTACAGAA | 0.066
GTGATGTA | 0.0906
GGGAGACC | -0.355
AACCCGCC | 0.0998
ATATAGGG | -0.132

Nothing new here: an excerpt of the list.
Sequence | PBM E-score
GCAAGTAC | -0.0548
GCAAGGCC | 0.0338
CGCTAACG | 0.233
TTCTCCAA | -0.122
CCGAGCGC | 0.19
AATTGTTC | 0.212

The list goes on:

Sequence | PBM E-score
GTCGCCCA | -0.0788
CACACTGA | -0.00238
AAAGGATA | 0.149
AGCGGTAC | 0.0993
ATTGAGAG | 0.15
ACTGGTCA | -0.0283
GATTATAA | 0.29
AGTCCGAT | 0.05
AATCACAA | 0.0852
GTCTCAAC | -0.072
AAGGGCAT | -0.205
CCGGGGAA | -0.143
CGCGAGCC | 0.072
AATGGAAA | -0.01
CGGCTCAC | -0.0062
GCCGGTCC | -0.178
GCAGAGAA | 0.0302
ACAGTAGA | -0.0159
ATCCTAGA | -0.0558
AGGGTACG | -0.175
GGCGCGGA | 0.0474
ATAGTCGG | -0.048
ACGTCCCC | -0.288
AGTGTGAC | -0.0643
CAGTAGGG | -0.192

Sequence | PBM E-score
CCGGACTC | 0.281
AGCTGATG | 0.092
CCGAAGCC | -0.147
CAGTGCGA | -0.0311
CAGGCTTC | 0.0239
CAGTACAG | 0.00174
AATCCCCT | -0.391
AATTAGTC | 0.346
GCCCAACA | -0.145
CAATACGG | 0.033
CCGTCGCA | -0.00099
ACTAGCTC | -0.0688
GCGCGTCA | 0.0818
CCGTCTCA | -0.0131
AATTTATA | 0.241
CATGAAGG | 0.0961
ATTGGAGG | -0.0512
CATTCGGG | 0.051
AGCAAGTG | -0.0785
CTTGTTAC | -0.0787
ATGGTTAA | 0.133
ATGCGACC | 0.0488
CGACTACC | -0.128
GCATCCAA | -0.167
AAGGCCTT | -0.101

Sequence | PBM E-score
ATCTCGGG | 0.156
GCAGACCA | -0.0168
ACGCGACA | 0.145
GCACTTTA | 0.0791
ACTCCTGC | -0.0123
AAGCAGAG | -0.111
ATCGATAG | 0.0764
GTTTACCA | 0.0706
CATCTTAG | 0.0167
GTAGGGGA | -0.232
ATCACCTC | 0.0366
AGCGTCCC | 0.00123
ATGCCAAT | -0.0122
GAATAAAC | 0.0531
GCGTGGTA | -0.0441
ACGAGGAA | 0.0132
ACGCGACT | -0.154
AGCGCTGC | 0.0821
CAACACAA | 0.11
ATAACATG | 0.146
ACCCAATA | 0.0319
CCGACGCA | -0.0934
AACCGGAA | 0.162
GCGCGGCC | 0.17
CATGCGCA | 0.116

Sequence | PBM E-score
ACGCCCTG | -0.0391
TGGGGTAA | 0.134
AATGGGCT | -0.219
GCTTTAAA | -0.129
AAGAGGGG | -0.239
CCGCGTCG | 0.146
ATACATAT | 0.286
AATGTAAG | 0.264
ACGCAGGA | -0.0891
GATAATAC | 0.182
CCCTCACC | -0.248
CGCAAATA | 0.23
GCCGCCAA | -0.0208
GGGCGTCA | -0.0197
GATTTCAC | 0.221
ACGAAATC | 0.214
AGTCGAAC | 0.105
GAACATGC | -0.0214
AGCGATCG | 0.216
